Drawing on PubChem BioAssay AID2685 (National Center for Advancing Translational Sciences (NCATS), 2010), this text covers cell number change and AC50 for 42 molecules.

The list shows a part of the results. These are further read-outs of the screen, such as a control signal, another cell line or another target. No call is given for them. Compounds called inactive in the main read-out are mostly missing here. Potencies come from curve fits of mixed quality, noted in brackets.

The assay is described as follows: qHTS Assay for Lipid Storage Modulators in Drosophila S3 Cells.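 On cell number change: cells counted by Cell Tracker Red CMTPX staining in the red channel.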 Particulars: BODIPY lipid droplet fluorescence, 18-24 h; for cell number change: measured here: cell count max response, cells fed with added oleic acid. The method in brief:
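Laser-scanning cytometry quantifies lipid droplet accumulation (500–530 nm total intensity; droplet/cell object ratio) in oleic acid-fed (400 uM added) Drosophila S3 cells treated with a concentration series. 20 uM Triacsin C defined 100% inhibition.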

Where [1] appears, read: measured here: cell number channel AC50, cells fed with added oleic acid.
[2] abbreviates: measured here: lipid fluorescence (Fed channel) AC50, cells fed with added oleic acid.

Turning to `Cc1ccc(CNC(=O)CCc2c(C)[nH]c(=O)c(C#N)c2C)cc1`, the cell number change is 19.7%.

By AC50 is commonly meant the midpoint of the concentration-response curve, whichever way the signal moves. In the case of `OC1CCCN(Cc2c3ccccc3cc3ccccc23)C1` (stereo not given), the cell number change was -42.4%. The AC50 under setting [1] was 0.731 µM [falling, full curve]. The AC50 under setting [2] was 5.8 µM [falling, full curve].

Turning to `COCCCn1c(=N)c(C(=O)NCC2CCCO2)cc2c(=O)n3ccccc3nc21` (stereo not given), the cell number change is -3.17%. Besides, the AC50 under setting [2] was 32.6 µM [rising, single point].

On to `Cc1cc(O)ccc1NC(=S)NC(=O)c1cncc(Br)c1`, for which the cell number change is -25.8%.

Turning to `CC(=O)SC1CC(=O)N(c2ccc(C(C)(C)C)cc2)C1=O` (stereo not given), the cell number change was determined as 24%. In addition, under setting [2], the AC50 is 0.13 µM [falling, full curve, poor fit].

Consider `O=C1CC[C@@H](O)CCN1CC[C@H](Sc1ccccc1)c1ccccc1`, for which the cell number change was 9.58%. Moreover, under setting [1], the AC50 is 0.651 µM [rising, partial curve].

For `O=C(c1ccco1)N1CCN(Cc2cc(=O)c(OCc3ccccc3F)co2)CC1`, the cell number change was 25%. For the same molecule, under setting [1], the AC50 was 4.61 µM [rising, full curve, poor fit]. Moreover, under setting [2], the AC50 is 9.2 µM [falling, partial curve].

Turning to `COC(=O)Cn1c(=NC(=O)c2ccc(Cl)s2)sc2cc(C)ccc21`, the cell number change was -50%. Under setting [1], the AC50 is 18.4 µM [falling, partial curve].

Take `Cc1occc1C(=O)n1nnc2ccccc21`: the cell number change is 6%. Also, the AC50 under setting [1] was 2.91 µM [rising, partial curve].

`CCCCNC(=O)CS(=O)Cc1nc(-c2cccs2)oc1C` (stereo not given): the cell number change came out at 35.9%. The AC50 under setting [1] was 29.1 µM [rising, single point].

In the case of `CCOC(=O)c1ccc(N2C(=O)CC(N3CCN(Cc4ccccc4)CC3)C2=O)cc1` (stereo not given), the cell number change is -0.816%. In addition, the concentration at half-maximal activity (AC50) under setting [2] was 29.1 µM [falling, single point].

On to `CCC(Cc1ccccc1)NC(=O)C1CC1` (stereo not given), for which the cell number change was -0.702%.

With `CCN(CC)S(=O)(=O)c1ccc2oc(SCC(=O)NCc3ccccc3)nc2c1`, the cell number change was 98.4%. Also, the AC50 under setting [1] was 18.4 µM [rising, partial curve].

Regarding `COc1cccc(N2C(=O)C(c3ccccc3)=C(c3nc4ccccc4s3)C2NC(C)=O)c1` (stereo not given), the AC50 under setting [1] was 2.06 µM [rising, partial curve] and the AC50 under setting [2] was 2.31 µM [rising, partial curve].

Take `Cc1ccc(S(=O)(=O)NCCNC(C)c2ccc(Br)cc2)cc1` (stereo not given): the cell number change was -6.48%. For the same molecule, the AC50 under setting [2] was 6.51 µM [rising, single point].

Regarding `CC(=O)Nc1ccc(SCC(=O)Nc2sccc2C#N)cc1`, the cell number change stood at 29.3%.

In the case of `CC1C2C(C)N(C)C(=O)N(C)C2N(C)C(=O)N1C` (stereo not given), the cell number change was -9.79%. The AC50 under setting [2] was 29.1 µM [falling, single point].

In the case of `CN1/C(=C\C(=O)c2cccnc2)C(C)(C)c2ccccc21`, the cell number change came to 21.5%. Further, the AC50 under setting [2] is 0.146 µM [rising, full curve, poor fit].

As to `CC(=O)N/N=C(\C)CCc1ccccc1`, the cell number change was 62.4%.

Regarding `CCOc1cc(/C=N/NC(=O)CCn2nnc3ccccc32)ccc1O`, the cell number change was 5.5%. Further, under setting [2], the AC50 is 29.1 µM [rising, single point].

Consider `COc1ccc(-c2nn(-c3ccccc3)cc2/C=N/N2C(=O)CSC2=S)cc1`, for which the cell number change is -65.3%.

Turning to `CCc1nc(SCC(=O)Nc2cc(OC)ccc2OC)c2c(C)c(C)sc2n1`, the cell number change was -14.1%.

On to `COc1ccc(CC(=O)Nc2cccc(/C(C)=N/NC(=O)C3(C)CC3(Br)Br)c2)cc1` (stereo not given), for which the cell number change is -19.4%. For the same molecule, the AC50 under setting [2] is 23.1 µM [falling, single point].

`O=C(O)CC(CC(=O)Nc1nncs1)c1ccccc1` (stereo not given): the cell number change was -21.8%.

For `COc1ccccc1C(C)NC(=O)c1ccc(NC(=O)CC2SC(N3CCCC3)=NC2=O)cc1` (stereo not given), the cell number change was -10.8%. Besides, under setting [2], the AC50 is 25.9 µM [rising, partial curve, poor fit].

For `CCCCc1nnc(NC(=O)CCS(=O)(=O)c2ccc(C)cc2)s1`, the cell number change is -13.3%.

On to `COc1ccc(CNCC(O)(c2ccc(F)cc2)c2ccc(F)cc2)cc1OC`, for which the cell number change was -13.5%. Besides, under setting [2], the AC50 is 0.116 µM [falling, full curve, poor fit].

For `O=C(COc1ccc2ccccc2c1)Nc1cccc2cccnc12`, the cell number change is -21%. Further, the AC50 under setting [2] was 14.6 µM [falling, partial curve, poor fit].

In the case of `Cc1ccc(C2=NN(C(=O)CCl)C(c3ccco3)C2)o1` (stereo not given), the cell number change is -16.5%. In addition, the AC50 under setting [1] was 7.31 µM [falling, single point]. For the same molecule, the AC50 under setting [2] was 6.51 µM [falling, partial curve].

Take `Cc1ccc(OCCn2cc(C=O)c3ccccc32)cc1`: the cell number change is -23.9%.

Consider `Oc1cccc(NC(=S)N=Nc2c(O)[nH]c3ccc(Br)cc23)c1`, for which the cell number change is -22%.

As for `CCOc1ccccc1NC(=O)CCNS(=O)(=O)c1ccc2[nH]c(=O)oc2c1`, the cell number change stood at 5.6%. Moreover, under setting [2], the AC50 is 29.1 µM [falling, single point].

Regarding `O=C(CCCC(=O)N(c1ccc(F)cc1)C(C(=O)NC1CCCC1)c1ccc(O)cc1)Nc1ccccn1` (stereo not given), the cell number change turned out to be 20.3%.

As to `COc1ccc(/C=N/n2cnn(Cc3ccccc3Cl)c2=S)cc1OC`, the cell number change is -52%. Also, the AC50 under setting [1] was 29.1 µM [falling, single point]. Besides, the AC50 under setting [2] was 29.1 µM [falling, single point].

Turning to `O=C(/C=C/c1ccccc1)C1=C(O)C(=O)N(CCO)C1c1ccccc1[N+](=O)[O-]` (stereo not given), the cell number change was -19.8%.

With `Nc1nc(SCC(=O)NCc2ccccc2)[nH]c(=O)c1NC(=O)c1ccccc1F`, the cell number change is -0.89%. The half-maximal activity concentration (AC50) under setting [1] was 0.092 µM [rising, full curve, poor fit].

As to `O=C(NC(N1CCOCC1)C(Cl)(Cl)Cl)c1ccco1` (stereo not given), the cell number change was -21.2%. For the same molecule, the AC50 under setting [2] is 16.4 µM [falling, partial curve, poor fit].

As to `O=C(Nc1cc(S(=O)(=O)N2CCOCC2)ccc1Cl)C1CCC1`, the cell number change was -75%. In addition, under setting [1], the AC50 was 29.1 µM [falling, single point].

For `COc1ccccc1OCC(=O)Nc1ccccc1C(=O)N1CCCC1`, the cell number change is -1.32%.

Take `Cc1nnc2n1N=CC=C(C(C)(C)C)S2`: the cell number change is -28.7%. The AC50 under setting [1] was 4.11 µM [falling, full curve, poor fit]. Further, the concentration at half-maximal activity (AC50) under setting [2] was 0.0651 µM [falling, full curve, poor fit].

Take `CC(NC(=O)Cc1cccs1)c1ccncc1` (stereo not given): the cell number change is -22.5%. Further, the AC50 under setting [2] is 0.13 µM [rising, full curve, poor fit].

Regarding `COC(=O)c1c(NC(=O)COC(=O)[C@@H](NS(=O)(=O)c2ccc(C)cc2)C(C)C)sc2c1CCC2`, the cell number change is -58%. Moreover, the AC50 under setting [1] is 29.1 µM [falling, partial curve, poor fit].
